Two substances from publication PMC10518936 can be followed below.

Protein sequences, listed by entry. Tags and fused reporters are not part of them. Lines headed by an entry give the natural chain unless they say otherwise; changes in a name come on top.
UniProt Q99MQ3: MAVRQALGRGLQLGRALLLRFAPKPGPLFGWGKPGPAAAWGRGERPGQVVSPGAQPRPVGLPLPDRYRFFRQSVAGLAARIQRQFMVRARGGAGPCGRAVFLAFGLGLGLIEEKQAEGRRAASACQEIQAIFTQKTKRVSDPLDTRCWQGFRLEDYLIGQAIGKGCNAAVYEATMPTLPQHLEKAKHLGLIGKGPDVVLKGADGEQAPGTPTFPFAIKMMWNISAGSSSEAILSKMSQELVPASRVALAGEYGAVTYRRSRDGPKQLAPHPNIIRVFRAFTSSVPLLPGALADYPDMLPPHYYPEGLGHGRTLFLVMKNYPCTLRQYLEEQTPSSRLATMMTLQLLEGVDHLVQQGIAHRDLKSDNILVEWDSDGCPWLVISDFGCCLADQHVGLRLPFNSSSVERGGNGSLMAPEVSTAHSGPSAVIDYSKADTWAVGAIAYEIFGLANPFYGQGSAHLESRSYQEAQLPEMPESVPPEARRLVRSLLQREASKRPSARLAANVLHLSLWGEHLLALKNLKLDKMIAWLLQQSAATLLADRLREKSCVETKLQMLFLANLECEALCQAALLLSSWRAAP

These are yes or no findings as the source states them, for the method shown. In cells and extracts the contact can be indirect. Some entries that bind do so weakly or less than the wild type.

Experiment [1] concerns the target PTEN mediated putative kinase protein 1 (PINK1) (UniProt Q99MQ3). The experiment is described as follows: co-IP; cells lysed in RIPA lysis buffer; supernatant incubated with the corresponding antibodies overnight at 4 °C; protein A agarose beads overnight at 4 °C; rinsed with PBS; detected by Western blotting; which antibody precipitated is not stated.
Experiment [2] deals with T1, SND1 (staphylococcal nuclease and Tudor domain containing 1) protein (UniProt Q78PY7).
T1 sequence: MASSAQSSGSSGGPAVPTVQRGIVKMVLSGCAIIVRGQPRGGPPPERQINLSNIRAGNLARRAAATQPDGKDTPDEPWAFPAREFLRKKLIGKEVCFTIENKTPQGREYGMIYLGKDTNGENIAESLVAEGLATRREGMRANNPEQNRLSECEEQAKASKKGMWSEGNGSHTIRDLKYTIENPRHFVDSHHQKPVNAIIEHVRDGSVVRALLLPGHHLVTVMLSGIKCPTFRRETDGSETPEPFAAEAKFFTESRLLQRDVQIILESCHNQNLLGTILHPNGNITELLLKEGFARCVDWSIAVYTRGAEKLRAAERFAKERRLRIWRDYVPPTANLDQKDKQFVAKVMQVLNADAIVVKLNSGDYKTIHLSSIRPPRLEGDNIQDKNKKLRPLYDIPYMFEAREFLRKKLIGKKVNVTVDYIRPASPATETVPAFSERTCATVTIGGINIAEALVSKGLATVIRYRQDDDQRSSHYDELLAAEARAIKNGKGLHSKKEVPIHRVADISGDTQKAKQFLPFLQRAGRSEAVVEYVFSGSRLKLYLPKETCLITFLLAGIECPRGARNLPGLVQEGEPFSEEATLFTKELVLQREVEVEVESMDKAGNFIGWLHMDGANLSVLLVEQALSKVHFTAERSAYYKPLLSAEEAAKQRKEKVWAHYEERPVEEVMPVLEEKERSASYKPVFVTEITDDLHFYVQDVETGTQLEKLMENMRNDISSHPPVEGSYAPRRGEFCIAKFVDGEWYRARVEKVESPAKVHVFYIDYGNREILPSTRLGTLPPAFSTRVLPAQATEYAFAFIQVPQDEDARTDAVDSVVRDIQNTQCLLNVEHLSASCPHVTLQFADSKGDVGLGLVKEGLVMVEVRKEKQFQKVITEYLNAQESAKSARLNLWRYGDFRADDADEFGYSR
The description is as above.

With BECN1 (from UniProt O88597 1-448), in experiment [1], the binding entry is reported as “binds”.
For “PTEN mediated putative kinase protein 1 (PINK1) (from UniProt Q99MQ3 78-580)”, in experiment [2], the binding entry is “binds”.
